Measured values reported in publication doi:10.1101/597153.
These are yes or no findings as the source states them, for the method shown. Binding seen in cells or lysates may run through a third protein. Binding calls can cover weak binding; strength is not graded here. Sequences can lack the tags named with a protein.

Target: T1, FLAG-SIRT1-WT (mouse) (UniProt Q923E4)
T1 sequence: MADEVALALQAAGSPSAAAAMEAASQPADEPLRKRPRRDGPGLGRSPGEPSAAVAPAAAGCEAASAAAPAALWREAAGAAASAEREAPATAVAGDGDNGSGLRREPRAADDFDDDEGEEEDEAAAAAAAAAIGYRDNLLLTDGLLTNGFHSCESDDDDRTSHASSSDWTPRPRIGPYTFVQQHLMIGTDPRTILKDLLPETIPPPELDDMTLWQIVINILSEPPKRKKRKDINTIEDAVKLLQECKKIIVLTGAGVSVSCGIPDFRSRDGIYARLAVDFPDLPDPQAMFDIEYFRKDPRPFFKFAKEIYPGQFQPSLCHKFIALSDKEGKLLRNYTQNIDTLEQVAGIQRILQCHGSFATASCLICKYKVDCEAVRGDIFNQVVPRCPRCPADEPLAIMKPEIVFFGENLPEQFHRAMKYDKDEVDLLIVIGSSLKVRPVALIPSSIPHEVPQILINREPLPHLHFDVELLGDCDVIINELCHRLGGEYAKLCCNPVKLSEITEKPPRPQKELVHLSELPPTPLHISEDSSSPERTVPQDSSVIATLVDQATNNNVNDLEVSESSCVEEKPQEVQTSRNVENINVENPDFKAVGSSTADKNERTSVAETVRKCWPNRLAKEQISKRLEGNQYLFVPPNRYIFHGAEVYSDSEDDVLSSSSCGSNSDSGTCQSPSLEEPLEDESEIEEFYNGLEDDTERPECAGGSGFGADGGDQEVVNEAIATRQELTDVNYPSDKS
Assay: co-IP

- binding: binds
Substance: AKT (human (endogenous in HEK293T)) (enzyme)
